# Earlier results in patent US20100279969A1, “AZIDO PURINE NUCLEOSIDES FOR TREATMENT OF VIRAL INFECTIONS” (priority 2007, published 2010).
# Some of these results come from one statement about several compounds together.
# Tested on: M184I/V mutation in HIV-1 RT
# Conditions: high-level resistance; cited from earlier work
structure (smiles),measurement,value
"Nc1ccn([C@H]2CS[C@@H](CO)O2)c(=O)n1 [3TC, (−)-2′,3′-dideoxy-3′-thiacytidine]",resistance caused by M184I/V mutation,> 100 fold
